{"source": "patent US20250084172A1", "binders": {"B1": {"name": "human ULBP6 displayed on M13 phage (ULBP6-HA-pIII) (protein, not shown: large carriers)", "chain": "RRDDPHSLCYDITVIPKFRPGPRWCAVQGQVDEKTFLHYDCGNKTVTPVSPLGKKLNVTMAWKAQNPVLREVVDILTEQLLDIQLENYTPKEPLTLQARMSCEQKAEGHSSGSWQFSIDGQTFLLFDSEKRMWTTVHPGARKMKEKWENDKDVAMSFHYISMGDCIGWLEDFLMGMDSTLEPSAGAPLAMSSGYPYDVPDYA"}}, "target": "hNKG2D-Fc (human NKG2D 78-216 with C-terminal long huFc-Flag tag) (human)", "test": "phage ELISA, recombinant NKG2D (PUR4928) coated, anti-M13-HRP detection", "note": "No constants are given. Whether binding was seen depends on the method and setting. Some entries that bind do so weakly or less than the wild type. Where a sequence is shown, tags or fusion partners need not be part of it."}
{"binder": "B1", "values": [{"measurement": "binding", "value": "binds"}]}
